This note sets out measurements from publication PMC2853571.

Amino acid sequences for entries named in this document (tags omitted).
UniProt P68363: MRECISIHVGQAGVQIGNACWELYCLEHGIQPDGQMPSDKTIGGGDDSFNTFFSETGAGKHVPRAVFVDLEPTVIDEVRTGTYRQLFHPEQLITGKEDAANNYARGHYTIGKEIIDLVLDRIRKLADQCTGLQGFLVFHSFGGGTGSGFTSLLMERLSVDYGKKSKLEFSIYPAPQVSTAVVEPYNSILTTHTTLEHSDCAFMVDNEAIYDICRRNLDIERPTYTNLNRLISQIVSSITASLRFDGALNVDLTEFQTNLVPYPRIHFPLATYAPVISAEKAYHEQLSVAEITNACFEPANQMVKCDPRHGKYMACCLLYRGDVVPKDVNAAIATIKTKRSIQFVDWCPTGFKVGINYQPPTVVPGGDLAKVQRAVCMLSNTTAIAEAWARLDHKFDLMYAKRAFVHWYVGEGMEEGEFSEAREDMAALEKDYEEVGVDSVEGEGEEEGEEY
UniProt P68366: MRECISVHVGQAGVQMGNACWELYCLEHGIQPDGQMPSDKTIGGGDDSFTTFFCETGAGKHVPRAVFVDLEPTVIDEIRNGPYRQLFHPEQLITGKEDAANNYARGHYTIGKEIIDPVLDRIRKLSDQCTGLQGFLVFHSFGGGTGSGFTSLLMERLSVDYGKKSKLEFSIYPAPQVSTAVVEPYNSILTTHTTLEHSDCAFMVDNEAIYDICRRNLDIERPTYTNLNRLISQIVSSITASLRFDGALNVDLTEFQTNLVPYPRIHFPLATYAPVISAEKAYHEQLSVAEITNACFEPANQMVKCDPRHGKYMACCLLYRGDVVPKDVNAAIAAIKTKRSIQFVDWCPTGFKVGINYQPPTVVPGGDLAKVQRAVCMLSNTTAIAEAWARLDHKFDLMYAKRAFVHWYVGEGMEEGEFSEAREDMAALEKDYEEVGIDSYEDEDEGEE
UniProt Q9ESD7: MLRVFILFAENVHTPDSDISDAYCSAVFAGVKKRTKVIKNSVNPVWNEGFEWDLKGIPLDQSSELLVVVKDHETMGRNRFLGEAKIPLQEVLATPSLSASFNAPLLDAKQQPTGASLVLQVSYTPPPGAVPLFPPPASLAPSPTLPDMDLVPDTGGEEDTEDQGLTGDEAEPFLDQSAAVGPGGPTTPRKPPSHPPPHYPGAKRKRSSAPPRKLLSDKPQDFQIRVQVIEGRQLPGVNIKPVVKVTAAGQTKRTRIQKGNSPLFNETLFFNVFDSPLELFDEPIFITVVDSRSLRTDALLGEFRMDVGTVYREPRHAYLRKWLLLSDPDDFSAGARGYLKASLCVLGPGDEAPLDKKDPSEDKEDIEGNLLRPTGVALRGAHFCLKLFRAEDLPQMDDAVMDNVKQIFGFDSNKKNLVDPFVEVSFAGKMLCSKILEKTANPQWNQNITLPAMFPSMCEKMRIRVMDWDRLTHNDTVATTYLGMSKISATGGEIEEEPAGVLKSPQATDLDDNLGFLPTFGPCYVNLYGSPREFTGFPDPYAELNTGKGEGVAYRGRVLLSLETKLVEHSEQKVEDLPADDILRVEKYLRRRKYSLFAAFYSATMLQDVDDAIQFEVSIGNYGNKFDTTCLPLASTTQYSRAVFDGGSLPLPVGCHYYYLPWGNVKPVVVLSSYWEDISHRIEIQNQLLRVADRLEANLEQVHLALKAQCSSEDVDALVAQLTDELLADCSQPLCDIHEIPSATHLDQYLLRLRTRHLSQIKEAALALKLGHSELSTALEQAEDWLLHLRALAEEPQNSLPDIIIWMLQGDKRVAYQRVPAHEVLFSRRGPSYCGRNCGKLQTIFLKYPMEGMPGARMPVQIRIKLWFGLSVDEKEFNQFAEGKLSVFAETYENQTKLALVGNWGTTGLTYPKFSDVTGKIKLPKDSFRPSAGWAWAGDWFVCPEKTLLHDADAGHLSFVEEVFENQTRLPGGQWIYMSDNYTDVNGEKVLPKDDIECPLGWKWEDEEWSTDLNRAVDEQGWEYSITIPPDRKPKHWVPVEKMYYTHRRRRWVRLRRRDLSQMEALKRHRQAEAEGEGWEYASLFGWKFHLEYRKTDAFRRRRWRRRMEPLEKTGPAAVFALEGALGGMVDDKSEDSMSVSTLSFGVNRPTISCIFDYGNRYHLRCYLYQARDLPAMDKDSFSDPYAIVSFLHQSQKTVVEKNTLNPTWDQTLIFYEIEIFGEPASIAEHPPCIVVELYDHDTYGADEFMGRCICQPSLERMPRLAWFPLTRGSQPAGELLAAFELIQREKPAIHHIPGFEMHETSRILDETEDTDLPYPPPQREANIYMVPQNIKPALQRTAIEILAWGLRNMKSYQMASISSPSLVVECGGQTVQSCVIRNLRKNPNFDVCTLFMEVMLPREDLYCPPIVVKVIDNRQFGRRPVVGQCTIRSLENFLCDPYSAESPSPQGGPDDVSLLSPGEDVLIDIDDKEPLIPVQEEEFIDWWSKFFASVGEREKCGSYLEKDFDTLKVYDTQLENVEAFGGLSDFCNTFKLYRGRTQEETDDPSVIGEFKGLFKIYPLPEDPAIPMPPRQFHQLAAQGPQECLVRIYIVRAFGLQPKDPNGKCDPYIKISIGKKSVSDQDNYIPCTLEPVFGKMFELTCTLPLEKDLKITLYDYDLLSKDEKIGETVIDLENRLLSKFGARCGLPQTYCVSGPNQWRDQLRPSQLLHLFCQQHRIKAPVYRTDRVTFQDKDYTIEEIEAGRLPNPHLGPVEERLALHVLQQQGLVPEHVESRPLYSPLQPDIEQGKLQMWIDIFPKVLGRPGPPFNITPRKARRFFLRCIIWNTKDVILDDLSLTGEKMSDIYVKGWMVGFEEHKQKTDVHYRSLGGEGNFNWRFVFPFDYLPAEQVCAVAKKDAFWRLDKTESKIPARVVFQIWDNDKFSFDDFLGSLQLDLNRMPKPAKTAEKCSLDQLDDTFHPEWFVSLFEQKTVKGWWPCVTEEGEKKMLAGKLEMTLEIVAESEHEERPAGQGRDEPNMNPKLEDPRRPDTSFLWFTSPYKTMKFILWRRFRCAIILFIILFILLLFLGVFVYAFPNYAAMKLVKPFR

No constants are given. Whether binding was seen depends on the method and setting. In cells and extracts the contact can be indirect. Some entries that bind do so weakly or less than the wild type.

For one assay, the target named is GST-TubA1B (UniProt P68363). Briefly: pull-down; 10 µg GST-TubA fusion protein on glutathione Sepharose 4B beads incubated overnight at 4°C with 1 mg mouse leg muscle homogenate (50 mM HEPES pH 7.6, 150 mM NaCl, 1% Triton X-100, 10% glycerol, 1 mM MgCl2); blot with anti-dysferlin; only the target purified.
The next assay addresses GST-TubA4A (UniProt P68366). The assay is described as above.

On to “native dysferlin (mouse) (from UniProt Q9ESD7 1-2090)”, for which the binding result with GST-TubA1B and with GST-TubA4A was “binds” throughout.
